Measurements from US20160102103A1, “SUBSTITUTED PYRIDINE COMPOUNDS HAVING HERBICIDAL ACTIVITY” (BASF SE, priority 2013, published 2016).
Some results were stated once for a whole list of compounds, not compound by compound.

Tests used:
Format in all cases: in vivo
[1] = system: Chenopodium album; assay: greenhouse post-emergence herbicidal test, CHEAL; details: scale from 0 to 100
[2] = system: Stellaria media; assay: greenhouse post-emergence herbicidal test, STEME; details: scale from 0 to 100
[3] = system: Setaria viridis; assay: greenhouse post-emergence herbicidal test, SETVI; details: scale from 0 to 100
Text: (§1) The seeds of the test plants were sown separately for each species. For the post-emergence treatment, the test plants were first grown to a height of 3 to 15 cm, depending on the plant habit, and only then treated with the active ingredients which had been suspended or emulsified in water. For this purpose, the test plants were either sown directly and grown in the same containers, or they were first grown separately as seedlings and transplanted into the test containers a few days prior to treatment. Depending on the species, the plants were kept at 10-25° C. or 20-35° C., respectively. The test period extended over 2 to 4 weeks. During this time, the plants were tended, and their response to the individual treatments was evaluated. Evaluation was carried out using a scale from 0 to 100. 100 means no emergence of the plants, or complete destruction of at least the aerial moieties, and 0 means no damage, or normal course of growth. A good herbicidal activity is given at values of at least 70 and a very good herbicidal activity is given at values of at least 85. The plants used in the greenhouse experiments were of the following species: [table]

[4] = system: Amaranthus retroflexus; assay: greenhouse post-emergence herbicidal test, AMARE; details: scale from 0 to 100
Text: as §1

[5] = system: Capsella bursa-pastoris; assay: greenhouse post-emergence herbicidal test, CAPBP; details: application rate 0.125 kg/ha, scale from 0 to 100
Text: as §1

| Compound | herbicidal activity against CHEAL ([1]; application rate 0.25 kg/ha) | herbicidal activity against STEME ([2]; application rate 0.25 kg/ha) | herbicidal activity against CHEAL ([1]; application rate 0.125 kg/ha) | herbicidal activity against STEME ([2]; application rate 0.125 kg/ha) | further results |
| --- | --- | --- | --- | --- | --- |
| CC1c2cccnc2C(OC(=O)C(C)(C)C)=C(c2c(Cl)cnc(Cl)c2Cl)S1(=O)=O (centres unmarked) [Compound I-7] | very good herbicidal activity (a very good herbicidal activity is given at values of at least 85) | very good herbicidal activity (a very good herbicidal activity is given at values of at least 85) | – | – | – |
| CC1c2cccnc2C(O)=C(c2c(Cl)cnc(Cl)c2Cl)S1(=O)=O (centres unmarked) [Compound I-8] | very good herbicidal activity (a very good herbicidal activity is given at values of at least 85) | very good herbicidal activity (a very good herbicidal activity is given at values of at least 85) | – | – | herbicidal activity against SETVI ([3]; application rate 0.25 kg/ha): very good herbicidal activity (a very good herbicidal activity is given at values of at least 85) |
| CCC1c2cccnc2C(OC(=O)C(C)(C)C)=C(c2c(Cl)cnc(Cl)c2Cl)S1(=O)=O (centres unmarked) [Compound I-9] | very good herbicidal activity (a very good herbicidal activity is given at values of at least 85) | very good herbicidal activity (a very good herbicidal activity is given at values of at least 85) | – | – | herbicidal activity against AMARE ([4]; application rate 0.25 kg/ha): very good herbicidal activity (a very good herbicidal activity is given at values of at least 85) |
| O=S1(=O)C(c2c(Cl)cnc(Cl)c2Cl)=C(O)c2ncccc2C12CC2 [Compound I-12] | very good herbicidal activity (a very good herbicidal activity is given at values of at least 85) | very good herbicidal activity (a very good herbicidal activity is given at values of at least 85) | – | – | – |
| COc1c(Cl)ncc(Cl)c1C1=C(OC(=O)C(C)(C)C)c2ncccc2C(C)(C)S1(=O)=O [Compound I-15] | – | – | very good herbicidal activity (a very good herbicidal activity is given at values of at least 85) | very good herbicidal activity (a very good herbicidal activity is given at values of at least 85) | herbicidal activity against AMARE ([4]; application rate 0.125 kg/ha): very good herbicidal activity (a very good herbicidal activity is given at values of at least 85) |
| COc1c(Cl)ncc(Cl)c1C1=C(O)c2ncccc2C(C)(C)S1(=O)=O [Compound I-16] | – | – | – | very good herbicidal activity (a very good herbicidal activity is given at values of at least 85) | – |
| COc1ncc(Cl)c(C2=C(O)c3ncccc3C(C)(C)S2(=O)=O)c1Cl [Compound I-22] | very good herbicidal activity (a very good herbicidal activity is given at values of at least 85) | – | – | very good herbicidal activity (a very good herbicidal activity is given at values of at least 85) | herbicidal activity against CAPBP [5]: very good herbicidal activity (a very good herbicidal activity is given at values of at least 85); herbicidal activity against SETVI ([3]; application rate 0.25 kg/ha): very good herbicidal activity (a very good herbicidal activity is given at values of at least 85); herbicidal activity against AMARE ([4]; application rate 0.125 kg/ha): very good herbicidal activity (a very good herbicidal activity is given at values of at least 85); herbicidal activity against AMARE ([4]; application rate 0.25 kg/ha): very good herbicidal activity (a very good herbicidal activity is given at values of at least 85) |
| COCCOc1ncc(Cl)c(C2=C(O)c3ncccc3C(C)(C)S2(=O)=O)c1Cl [Compound I-26] | – | – | very good herbicidal activity (a very good herbicidal activity is given at values of at least 85) | – | herbicidal activity against CAPBP [5]: very good herbicidal activity (a very good herbicidal activity is given at values of at least 85); herbicidal activity against SETVI ([3]; application rate 0.125 kg/ha): very good herbicidal activity (a very good herbicidal activity is given at values of at least 85) |
| CC1(C)c2cccnc2C(O)=C(c2c(Cl)cnc(Br)c2Cl)S1(=O)=O [Compound I-30] | – | – | very good herbicidal activity (a very good herbicidal activity is given at values of at least 85) | very good herbicidal activity (a very good herbicidal activity is given at values of at least 85) | herbicidal activity against SETVI ([3]; application rate 0.125 kg/ha): very good herbicidal activity (a very good herbicidal activity is given at values of at least 85) |
